Results on one compound are retold here after PMC5666006, “Combating virulence of Gram-negative bacilli by OmpA inhibition” (Scientific Reports, 2017).

Usually Cmax stands for the peak of the concentration-time curve.

This data set in a line: AOA-2 pharmacokinetics in serum. To be noted: mouse, in vivo, ip, 10 mg/kg.

In turn, `N=C(N)NCCC[C@@H]1NC(=O)[C@H]2CCCN2C(=O)[C@H](Cc2c[nH]c3ccccc23)NC(=O)[C@H](CCCNC(=N)N)NC(=O)[C@H]2CCCN2C(=O)[C@H](Cc2c[nH]c3ccccc23)NC1=O` [AOA-2] returned a Cmax of 12600 ng/mL.
